PubChem BioAssay AID504805 | Drosophila RNAi Screening Center – 2011
Only reagents picked out of a larger screen are listed. 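Phenotypes are words from visual inspection of images, not measured scores.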 Reagent sequences are not shown.

Assay: 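Fly genes required for export of polyadenylated mRNA from the nucleus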 (primary screen)
Cells: Drosophila S2R+ cells
Reagents: long dsRNA against Drosophila genes, 0.25 µg dsRNA per well
Time to read-out: 4 days
Measured: 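Microscope images of cells stained for poly(A) RNA with a fluorescent oligo-dT probe and for DNA, assessed visually, with a phenotype description given for each replicate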

How did the screen score Sf3a1 (GeneID 42048) [DRSC15166]?
phenotype, replicate 1: poly(A) RNA held back in the nucleus

How did the screen score CG10510 (GeneID 40341) [DRSC11614]?
phenotype, replicate 1: poly(A) RNA held back in the nucleus

For lig (GeneID 35771) [DRSC07247], how do the results read?
phenotype, replicate 1: poly(A) RNA held back in the nucleus

Which result is listed for RpS26 (GeneID 35098) [DRSC03420]?
phenotype, replicate 1: poly(A) RNA held back in the nucleus; phenotype, replicate 2: poly(A) RNA held back in the nucleus

How did the screen score l(1)10Bb (GeneID 32069) [DRSC20346]?
phenotype, replicate 1: poly(A) RNA held back in the nucleus; phenotype, replicate 2: poly(A) RNA held back in the nucleus

What did the screen give for CG31126 (GeneID 326121) [DRSC14623]?
phenotype, replicate 1: poly(A) RNA held back in the nucleus; phenotype, replicate 2: poly(A) RNA held back in the nucleus

With Chmp1 (GeneID 40036) [DRSC10401], what does the deposit list?
phenotype, replicate 1: poly(A) RNA held back in the nucleus

With Ir7c (GeneID 31692) [DRSC18007], how do the results read?
phenotype, replicate 1: poly(A) RNA held back in the nucleus

What is on record for rost (GeneID 34222) [DRSC03603]?
phenotype, replicate 1: poly(A) RNA held back in the nucleus

What is on record for DopEcR (GeneID 38539) [DRSC08529]?
phenotype, replicate 1: poly(A) RNA held back in the nucleus

How did the screen score Grip (GeneID 50391) [DRSC17940]?
phenotype, replicate 1: poly(A) RNA held back in the nucleus

What did the screen give for CG14448 (GeneID 40497) [DRSC11705]?
phenotype, replicate 1: poly(A) RNA held back in the nucleus

With Ndc80 (GeneID 32316) [DRSC20221], how do the results read?
phenotype, replicate 1: poly(A) RNA held back in the nucleus

What did the screen give for Med (GeneID 43725) [DRSC16737]?
phenotype, replicate 1: poly(A) RNA held back in the nucleus

What did the screen give for CG31368 (GeneID 41437) [DRSC14951]?
phenotype, replicate 1: poly(A) RNA held back in the nucleus

What is on record for Ice1 (GeneID 37701) [DRSC04191]?
phenotype, replicate 1: poly(A) RNA held back in the nucleus

With bora (GeneID 40031) [DRSC10744], what was measured?
phenotype, replicate 1: poly(A) RNA held back in the nucleus

What did the screen give for twf (GeneID 41719) [DRSC15466]?
phenotype, replicate 1: poly(A) RNA held back in the nucleus

What is on record for CG33270 (GeneID 2768982) [DRSC10584]?
phenotype, replicate 1: poly(A) RNA held back in the nucleus

For Tbc1d22 (GeneID 42498) [DRSC15867], how do the results read?
phenotype, replicate 1: poly(A) RNA held back in the nucleus

With L (retired record) (GeneID 44831) [DRSC05967], what was measured?
phenotype, replicate 1: poly(A) RNA held back in the nucleus

For Cyp313a4 (GeneID 41563) [DRSC16627], what does the deposit list?
phenotype, replicate 1: poly(A) RNA held back in the nucleus

For rols (GeneID 39368) [DRSC09873], how do the results read?
phenotype, replicate 1: poly(A) RNA held back in the nucleus

What did the screen give for Crag (GeneID 31800) [DRSC18454]?
phenotype, replicate 1: poly(A) RNA held back in the nucleus

With Sumo (GeneID 33981) [DRSC03611], what does the deposit list?
phenotype, replicate 1: poly(A) RNA held back in the nucleus

How did the screen score CG34159 (GeneID 34353) [DRSC02885]?
phenotype, replicate 1: poly(A) RNA held back in the nucleus

What did the screen give for Sry-beta (GeneID 43570) [DRSC16868]?
phenotype, replicate 1: poly(A) RNA held back in the nucleus

For GlcAT-P (GeneID 39262) [DRSC10603], what was measured?
phenotype, replicate 1: poly(A) RNA held back in the nucleus

Which result is listed for RpL7 (GeneID 34352) [DRSC03417]?
phenotype, replicate 1: poly(A) RNA held back in the nucleus; phenotype, replicate 2: poly(A) RNA held back in the nucleus

What did the screen give for Ns3 (GeneID 31097) [DRSC18607]?
phenotype, replicate 1: poly(A) RNA held back in the nucleus

How did the screen score SmF (GeneID 36314) [DRSC07397]?
phenotype, replicate 1: poly(A) RNA held back in the nucleus; phenotype, replicate 2: poly(A) RNA held back in the nucleus

For ND-39 (GeneID 40272) [DRSC11791], how do the results read?
phenotype, replicate 1: poly(A) RNA held back in the nucleus

With CG30377 (GeneID 50252) [DRSC06799], what was measured?
phenotype, replicate 1: poly(A) RNA held back in the nucleus

How did the screen score CycT (GeneID 39961) [DRSC11124]?
phenotype, replicate 1: poly(A) RNA held back in the nucleus

For mnb (GeneID 32771) [DRSC23347], what does the deposit list?
phenotype, replicate 1: poly(A) RNA held back in the nucleus

What is on record for CG10359 (GeneID 38434) [DRSC08156]?
phenotype, replicate 1: poly(A) RNA held back in the nucleus

With CG12688 (retired record) (GeneID 31378) [DRSC17877], what was measured?
phenotype, replicate 1: poly(A) RNA held back in the nucleus

For CG40583 (retired record) (GeneID 5740259) [DRSC20938], what does the deposit list?
phenotype, replicate 1: poly(A) RNA held back in the nucleus

For Bx42 (GeneID 31840) [DRSC17743], how do the results read?
phenotype, replicate 1: poly(A) RNA held back in the nucleus; phenotype, replicate 2: poly(A) RNA held back in the nucleus

How did the screen score Su(z)2 (GeneID 36432) [DRSC07558]?
phenotype, replicate 1: poly(A) RNA held back in the nucleus; phenotype, replicate 2: poly(A) RNA held back in the nucleus

How did the screen score Saf-B (GeneID 42958) [DRSC16167]?
phenotype, replicate 1: poly(A) RNA held back in the nucleus; phenotype, replicate 2: poly(A) RNA held back in the nucleus

What did the screen give for Pef (GeneID 36111) [DRSC06695]?
phenotype, replicate 1: poly(A) RNA held back in the nucleus

How did the screen score CG7990 (GeneID 32909) [DRSC20069]?
phenotype, replicate 1: poly(A) RNA held back in the nucleus

How did the screen score RpS16 (GeneID 37580) [DRSC04442]?
phenotype, replicate 1: poly(A) RNA held back in the nucleus

What did the screen give for Ran-like (GeneID 39666) [DRSC10918]?
phenotype, replicate 1: poly(A) RNA held back in the nucleus

How did the screen score CG17684 (GeneID 3355066) [DRSC21166]?
phenotype, replicate 1: poly(A) RNA held back in the nucleus

A few values from the list:
Under “phenotype, replicate 1”, Ice1 (GeneID 37701) [DRSC04191] has poly(A) RNA held back in the nucleus
Value of CG30377 (GeneID 50252) [DRSC06799] under “phenotype, replicate 1”: poly(A) RNA held back in the nucleus
Under “phenotype, replicate 1”, CG12688 (retired record) (GeneID 31378) [DRSC17877] reads poly(A) RNA held back in the nucleus
Under “phenotype, replicate 1”, Grip (GeneID 50391) [DRSC17940] is entered as poly(A) RNA held back in the nucleus
Under “phenotype, replicate 1”, CycT (GeneID 39961) [DRSC11124] shows poly(A) RNA held back in the nucleus
